# According to PubChem BioAssay AID504467 (National Center for Advancing Translational Sciences (NCATS), 2011):
# Among all 330,000 compounds or so, about 7,700 (2.3%) were called active. Inconclusive results, whose numbers are uncertain, are shown with a selection of clear calls. Calls come from the whole dose curve; as a rule, active = well fitted inhibition curve with a large enough effect; inconclusive = small, poorly fitted or top-dose-only effect, or effect the other way; inactive = flat fitted curve, though single readings scatter. A potency beside an inconclusive call is a rough fit, not a confirmed value.
# Test: qHTS screen for small molecules that inhibit ELG1-dependent DNA repair in human embryonic kidney (HEK293T) cells expressing luciferase-tagged ELG1; note: nearly all actives have a fitted effect of over 55% in size
# Settings: HEK293T ELG1-luciferase reporter, luminescence, 16 h, DNA damage induced by 5-fluorouridine; activity change, negative = inhibition: at 46.1 µM (top of the series)
# Procedure, shortened: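 Luminescence from the luciferase reporter, measured 30 min after ONE-Glo reagent at room temperature, was the read-out. Beforehand, 2,000 cells per well were exposed for 16 hr at 37 °C to 5-fluorouridine together with compound or vehicle.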
# % is set by controls: 0 for no effect and ±100 for the full control effect; potency is the fitted concentration of half-maximal effect.
Compound,Potency,"activity change, negative = inhibition"
COc1ccc(S(=O)(=O)N(C)C[C@H]2Oc3ccc(NC(=O)Cc4cn(C)c5ccccc45)cc3C(=O)N([C@@H](C)CO)C[C@@H]2C)cc1,"inconclusive: 18.3 µM [inhibitor, partial curve]",–
O=C(CNCc1ccccn1)Nc1ccc([N+](=O)[O-])cc1C(=O)Nc1ccccc1F,active: 23.1 µM,–
COc1ccc(C2C(C(=O)N3CCN(c4ccccc4)CC3)c3ccccc3C(=O)N2C)cc1 (stereo unspecified),active: 20.6 µM,–
COc1ccc(-n2c(C)cc(/C=C3\SC(=S)N(Cc4ccco4)C3=O)c2C)cc1,"inconclusive: 9.2 µM [activator, partial curve]",–
Cc1cc(-c2ccc(C(C)C)c(S(=O)(=O)N3CCN(c4ccccc4)CC3)c2)on1,"inconclusive: 14.6 µM [inhibitor, partial curve, poor fit]",–
CCOC(=O)c1[nH]cnc1C(=O)Nc1cccc(N)n1,active: 9.2 µM,–
Cc1cc(Cl)ccc1N=C1N=C(N)c2ccccc21,–,inactive: -29.4%
CC(C)CCN1C(Nc2ccccc2)=NC[C@@H]1CC(C)C,–,inactive: 12.2%
O=C(CSc1c(Cl)cccc1Cl)N1CCC(c2nc3ccccc3s2)CC1,"inconclusive: 20.6 µM [inhibitor, partial curve]",–
C/C(=N\N(c1ccccc1)c1ccccc1)c1ccc(O)cc1,–,inactive: 1.59%
CCSc1cnn(-c2ccccc2)c(=O)c1SCC,–,inactive: -5.39%
Cc1cc(C(=O)COC(=O)c2ccc(Br)o2)c(C)n1Cc1ccco1,"inconclusive: 20.6 µM [activator, partial curve]",–
CCNC(=O)COc1ccc2ccccc2c1,"inconclusive: 23.1 µM [activator, partial curve]",–
CN(C)CCNC(=O)c1[nH]nc2c1CCc1ccccc1-2,"inconclusive: 20.6 µM [activator, partial curve]",–
CCN=C1S/C(=C\c2cc(OCC)c(O)cc2Br)C(=O)N1CC,active: 18.4 µM,–
NC(=O)C1CCN(C(=O)c2ccc([N+](=O)[O-])cc2NC(=O)c2cccs2)CC1,–,inactive: 29.4%
Cc1noc(C)c1COC(=O)/C=C/c1ccc(Cl)cc1,–,inactive: 8.31%
CCOc1cccc2cc(C(=O)OCC(=O)Nc3c(C)cccc3CC)c(=O)oc12,"inconclusive: 18.3 µM [activator, single point]",–
CCOc1ccc(CC(=O)Nc2c(C(N)=O)oc3ccccc23)cc1OCC,"inconclusive: 25.9 µM [inhibitor, partial curve, poor fit]",–
COc1ccc(C(C(=O)NC2CCCCC2)N(C(=O)c2ccco2)c2ccccc2OC)cc1 (stereo unspecified),"inconclusive: 4.11 µM [inhibitor, partial curve, poor fit]",–
O=C(c1ccc(NS(=O)(=O)c2cccc(C(F)(F)F)c2)cc1)N1CCCC1,"inconclusive: 7.3 µM [activator, partial curve, poor fit]",–
COc1ccc(Cl)cc1C(=O)Nc1ccc(Br)c(C)n1,"inconclusive: 5.8 µM [activator, full curve]",–
Cc1csc(=O)n1CCC(=O)OC(C)C(=O)NCc1ccccc1 (stereo unspecified),–,inactive: 13.6%

# 3 compounds from above, ordered by count of non-hydrogen atoms, descending:
Compound,Potency,"activity change, negative = inhibition"
Cc1cc(-c2ccc(C(C)C)c(S(=O)(=O)N3CCN(c4ccccc4)CC3)c2)on1,"inconclusive: 14.6 µM [inhibitor, partial curve, poor fit]",–
Cc1cc(C(=O)COC(=O)c2ccc(Br)o2)c(C)n1Cc1ccco1,"inconclusive: 20.6 µM [activator, partial curve]",–
CCN=C1S/C(=C\c2cc(OCC)c(O)cc2Br)C(=O)N1CC,active: 18.4 µM,–

# Later entries

Compound,Potency,"activity change, negative = inhibition"
CC1=C([N+](=O)[O-])C(c2ccc(Cl)cc2)NC(=O)N1C (stereo unspecified),–,inactive: 1.06%
Cc1cc(Nc2cccc(Cl)c2)nc(NCc2ccccc2)n1,–,inactive: -10.7%
O=C(O)Cn1c(=O)c2c(c3ccccc31)CCC2,–,inactive: 0.319%
CCOC(=O)c1c(NC(=S)NC(=O)c2cnn(CC)c2)sc2c1CCC(C)C2 (stereo unspecified),–,inactive: 0.772%
Fc1ccc(-c2csc3ncnc(N4CCN(c5ccccc5)CC4)c23)cc1,"inconclusive: 16.4 µM [inhibitor, single point]",–
O=C(NCCS(=O)(=O)NC1CCCC1)c1ccccc1,"inconclusive: 20.6 µM [activator, single point]",–
COc1cc(C(=O)N2CCC3(CC2)NCCc2[nH]cnc23)cc(OC)c1OC,"inconclusive: 9.2 µM [activator, partial curve, poor fit]",–
Cc1ccc(-c2cc(-c3cccc(F)c3)n[nH]2)c(O)c1,"inconclusive: 0.92 µM [activator, single point]",–
COc1ccc(CCNC(=O)c2ccc3c(c2)OCO3)cc1,"inconclusive: 14.6 µM [activator, partial curve]",–
CCOC(=O)c1c(NC(=O)CSc2nnc(-c3ccncc3)n2Cc2ccco2)sc(C)c1C,"inconclusive: 18.4 µM [inhibitor, single point]",–
COc1ccc(Cl)cc1NC(=O)CN(C)C(=O)c1cc(-c2ccncc2)nc2ccccc12,"inconclusive: 7.3 µM [inhibitor, partial curve]",–
COc1ccc(CNC(=O)c2csc(Cc3ccc(Cl)cc3)n2)cc1,"inconclusive: 14.6 µM [inhibitor, partial curve, poor fit]",–
CC1Oc2ccccc2N(CC(=O)NCc2ccccc2)C1=O (stereo unspecified),"inconclusive: 16.4 µM [activator, partial curve]",–
Cc1ccccc1Nc1nc(-c2ccccc2)c(C(=O)Nc2cccnc2)s1,active: 23.1 µM,–
O=C(Nc1ccc(N2CCCCC2)cc1)c1cccnc1Cl,"inconclusive: 20.6 µM [activator, partial curve]",–
CCOc1ccc(CCNC(=O)c2cccc(-n3cnnn3)c2)cc1OCC,–,inactive: -19.7%
CC(=O)N1CCc2cc(Br)cc(S(=O)(=O)N3CCN(C(=O)c4ccco4)CC3)c21,"inconclusive: 16.4 µM [inhibitor, partial curve]",–
Cc1ccc(-c2nnc(-c3cccc(NC(=O)c4cccs4)c3)o2)cc1,"inconclusive: 35.5 µM [inhibitor, single point]",–
Cc1cc2ccccc2n1CCNC(=O)c1ccccc1,"inconclusive: 2.31 µM [activator, partial curve]",–
O=C(OCc1c(-c2ccccc2)ncc2ccccc12)c1ccco1,"inconclusive: 16.4 µM [inhibitor, single point]",–
Cc1onc(-c2ccccc2)c1C(=O)N1CCCCCC1,–,inactive: 5.47%
O=C1c2ccccc2C(=O)N1CCC1=CCCCC1,"inconclusive: 20.6 µM [activator, partial curve]",–
COc1cccc(NC(=O)Nc2cc(C)ccc2OC)c1,–,inactive: 3.1%
